Test results reported in US10758584B2, “Topical formulation for promoting wound healing” (Oneness Biotech Co. LTD, priority 2016, dated 2020).
At least one structure is not confirmed: it was looked up by name or label, or the drawing left a doubt.

Tested on: human umbilical vein cells (HUVECs)
Experiment: In vitro capillary tube formation assay
Format: cell-based
Details: HUVEC on Matrigel, 6 h incubation, FIG. 5A

COc1ccc(-c2cc(=O)c3c(O)c(OC)c(OC)cc3o2)cc1 [salvigenin]
complete capillary tube formation relative to untreated HUVEC control: significantly increased tube formation
